Reference: the supplement of paper PMC10849652
The other results are listed elsewhere or left out.

Protein sequences, listed by entry. Tags and fused reporters are not part of them. Lines headed by an entry give the natural chain unless they say otherwise; changes in a name come on top.
UniProt Q96D70: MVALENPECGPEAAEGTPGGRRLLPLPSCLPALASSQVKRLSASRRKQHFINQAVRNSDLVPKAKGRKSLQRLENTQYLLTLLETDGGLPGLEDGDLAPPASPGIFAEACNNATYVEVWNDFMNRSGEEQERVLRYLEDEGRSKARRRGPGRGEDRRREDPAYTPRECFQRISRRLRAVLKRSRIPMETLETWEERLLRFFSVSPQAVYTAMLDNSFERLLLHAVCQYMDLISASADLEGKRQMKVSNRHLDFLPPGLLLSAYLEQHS
UniProt P54725: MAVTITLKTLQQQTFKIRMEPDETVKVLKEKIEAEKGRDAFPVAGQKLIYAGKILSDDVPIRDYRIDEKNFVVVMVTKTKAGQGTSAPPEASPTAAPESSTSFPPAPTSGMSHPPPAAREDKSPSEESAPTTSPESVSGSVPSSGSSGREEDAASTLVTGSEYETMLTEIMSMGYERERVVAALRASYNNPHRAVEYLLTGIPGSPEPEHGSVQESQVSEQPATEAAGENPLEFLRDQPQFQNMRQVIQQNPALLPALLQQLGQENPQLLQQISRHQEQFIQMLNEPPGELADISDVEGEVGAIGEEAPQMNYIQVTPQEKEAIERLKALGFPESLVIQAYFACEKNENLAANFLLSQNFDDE
UniProt P20337: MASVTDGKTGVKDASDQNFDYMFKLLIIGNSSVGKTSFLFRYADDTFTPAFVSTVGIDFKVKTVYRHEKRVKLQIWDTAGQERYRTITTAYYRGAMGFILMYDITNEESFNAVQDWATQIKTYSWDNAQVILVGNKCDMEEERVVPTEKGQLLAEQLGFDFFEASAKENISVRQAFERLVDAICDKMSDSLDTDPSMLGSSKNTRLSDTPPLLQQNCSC
UniProt A4D1S5: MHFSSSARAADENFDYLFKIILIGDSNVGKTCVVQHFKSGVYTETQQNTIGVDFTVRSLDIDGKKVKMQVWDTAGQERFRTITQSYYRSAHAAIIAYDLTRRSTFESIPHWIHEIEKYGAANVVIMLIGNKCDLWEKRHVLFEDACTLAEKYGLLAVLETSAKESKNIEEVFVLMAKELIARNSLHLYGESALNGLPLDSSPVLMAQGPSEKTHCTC
UniProt Q99708: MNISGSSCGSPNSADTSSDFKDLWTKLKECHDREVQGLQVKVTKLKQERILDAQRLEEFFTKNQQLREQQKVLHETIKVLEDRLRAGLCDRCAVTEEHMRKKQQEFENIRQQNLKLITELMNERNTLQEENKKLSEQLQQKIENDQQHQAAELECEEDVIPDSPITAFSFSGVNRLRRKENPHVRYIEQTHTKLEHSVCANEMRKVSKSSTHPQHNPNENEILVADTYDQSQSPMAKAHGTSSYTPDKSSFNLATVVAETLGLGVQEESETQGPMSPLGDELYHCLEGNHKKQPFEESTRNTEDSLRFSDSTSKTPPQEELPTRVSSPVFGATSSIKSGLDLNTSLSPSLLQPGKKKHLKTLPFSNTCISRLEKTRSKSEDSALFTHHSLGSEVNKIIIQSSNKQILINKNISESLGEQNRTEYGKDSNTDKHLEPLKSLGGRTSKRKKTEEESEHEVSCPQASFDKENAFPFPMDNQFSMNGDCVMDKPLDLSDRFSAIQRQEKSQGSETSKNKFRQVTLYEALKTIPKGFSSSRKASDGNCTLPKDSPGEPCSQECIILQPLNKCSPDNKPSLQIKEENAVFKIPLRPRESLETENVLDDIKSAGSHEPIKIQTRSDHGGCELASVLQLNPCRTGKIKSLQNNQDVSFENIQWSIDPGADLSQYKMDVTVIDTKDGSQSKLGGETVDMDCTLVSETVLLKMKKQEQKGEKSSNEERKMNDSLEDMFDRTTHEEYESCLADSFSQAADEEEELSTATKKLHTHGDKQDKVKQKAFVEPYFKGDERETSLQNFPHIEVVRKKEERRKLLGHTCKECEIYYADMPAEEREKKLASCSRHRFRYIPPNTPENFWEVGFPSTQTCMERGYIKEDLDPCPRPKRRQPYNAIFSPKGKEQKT
UniProt O75884: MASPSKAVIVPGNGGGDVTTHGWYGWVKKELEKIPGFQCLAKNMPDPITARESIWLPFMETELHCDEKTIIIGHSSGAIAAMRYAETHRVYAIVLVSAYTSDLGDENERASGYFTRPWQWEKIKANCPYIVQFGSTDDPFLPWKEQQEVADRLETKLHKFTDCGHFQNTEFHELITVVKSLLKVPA
UniProt O60518: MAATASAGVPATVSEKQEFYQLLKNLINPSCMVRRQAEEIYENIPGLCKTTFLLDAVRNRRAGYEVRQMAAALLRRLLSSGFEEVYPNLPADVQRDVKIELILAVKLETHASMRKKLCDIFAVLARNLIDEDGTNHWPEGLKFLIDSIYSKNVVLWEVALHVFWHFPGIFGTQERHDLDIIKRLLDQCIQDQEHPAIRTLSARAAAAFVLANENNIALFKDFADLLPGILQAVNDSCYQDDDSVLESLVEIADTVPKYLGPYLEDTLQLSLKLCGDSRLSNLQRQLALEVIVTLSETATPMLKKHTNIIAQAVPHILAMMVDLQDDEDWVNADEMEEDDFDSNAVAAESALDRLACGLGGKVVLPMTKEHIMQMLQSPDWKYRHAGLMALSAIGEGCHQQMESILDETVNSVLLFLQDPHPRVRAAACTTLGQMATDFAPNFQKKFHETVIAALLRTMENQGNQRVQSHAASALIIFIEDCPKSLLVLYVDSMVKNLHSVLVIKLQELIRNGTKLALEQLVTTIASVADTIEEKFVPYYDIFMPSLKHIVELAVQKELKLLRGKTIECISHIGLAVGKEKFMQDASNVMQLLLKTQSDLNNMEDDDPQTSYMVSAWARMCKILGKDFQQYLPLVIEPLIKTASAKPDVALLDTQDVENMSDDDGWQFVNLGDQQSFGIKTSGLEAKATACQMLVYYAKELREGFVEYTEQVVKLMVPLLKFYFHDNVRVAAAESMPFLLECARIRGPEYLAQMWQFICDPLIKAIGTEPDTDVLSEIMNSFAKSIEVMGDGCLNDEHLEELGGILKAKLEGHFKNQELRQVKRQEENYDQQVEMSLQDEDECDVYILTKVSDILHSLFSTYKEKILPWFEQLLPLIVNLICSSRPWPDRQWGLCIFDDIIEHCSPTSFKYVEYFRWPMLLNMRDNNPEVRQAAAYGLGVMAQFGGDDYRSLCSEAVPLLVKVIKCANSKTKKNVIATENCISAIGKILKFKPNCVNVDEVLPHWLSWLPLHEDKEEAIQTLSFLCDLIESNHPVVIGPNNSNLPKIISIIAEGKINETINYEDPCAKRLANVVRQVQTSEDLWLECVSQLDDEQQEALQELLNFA
UniProt Q9HD47: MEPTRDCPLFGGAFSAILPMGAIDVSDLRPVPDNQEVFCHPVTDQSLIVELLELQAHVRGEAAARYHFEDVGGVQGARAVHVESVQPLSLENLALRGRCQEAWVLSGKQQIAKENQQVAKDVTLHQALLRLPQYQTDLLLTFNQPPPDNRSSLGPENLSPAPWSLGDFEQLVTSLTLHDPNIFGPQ
UniProt P20936: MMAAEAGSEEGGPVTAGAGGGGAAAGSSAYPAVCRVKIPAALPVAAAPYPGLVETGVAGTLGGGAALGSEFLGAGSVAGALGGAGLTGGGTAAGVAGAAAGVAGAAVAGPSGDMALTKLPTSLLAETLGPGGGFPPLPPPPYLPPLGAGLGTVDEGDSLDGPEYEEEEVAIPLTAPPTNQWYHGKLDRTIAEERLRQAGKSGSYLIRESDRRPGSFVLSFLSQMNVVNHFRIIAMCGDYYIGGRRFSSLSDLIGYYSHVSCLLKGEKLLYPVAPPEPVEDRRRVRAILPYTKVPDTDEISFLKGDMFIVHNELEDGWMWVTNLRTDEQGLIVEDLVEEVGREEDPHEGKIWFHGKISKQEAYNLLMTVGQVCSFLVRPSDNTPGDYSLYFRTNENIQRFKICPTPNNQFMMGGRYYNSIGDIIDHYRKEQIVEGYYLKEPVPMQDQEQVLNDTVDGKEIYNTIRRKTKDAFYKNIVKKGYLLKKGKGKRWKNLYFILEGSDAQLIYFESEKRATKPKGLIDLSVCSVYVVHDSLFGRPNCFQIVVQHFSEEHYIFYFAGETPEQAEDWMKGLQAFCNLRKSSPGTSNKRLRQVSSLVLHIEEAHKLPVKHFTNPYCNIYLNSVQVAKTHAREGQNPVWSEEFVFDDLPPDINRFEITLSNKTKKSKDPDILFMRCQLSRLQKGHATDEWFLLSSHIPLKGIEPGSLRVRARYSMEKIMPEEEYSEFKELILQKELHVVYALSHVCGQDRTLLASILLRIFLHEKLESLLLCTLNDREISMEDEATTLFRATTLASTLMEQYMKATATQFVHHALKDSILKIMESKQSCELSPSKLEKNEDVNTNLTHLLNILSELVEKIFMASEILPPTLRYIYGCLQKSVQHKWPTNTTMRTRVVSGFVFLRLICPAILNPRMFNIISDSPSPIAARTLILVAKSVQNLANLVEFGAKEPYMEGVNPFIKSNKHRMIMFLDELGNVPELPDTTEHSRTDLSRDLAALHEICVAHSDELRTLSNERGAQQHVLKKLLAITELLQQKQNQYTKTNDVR
UniProt Q86YS3: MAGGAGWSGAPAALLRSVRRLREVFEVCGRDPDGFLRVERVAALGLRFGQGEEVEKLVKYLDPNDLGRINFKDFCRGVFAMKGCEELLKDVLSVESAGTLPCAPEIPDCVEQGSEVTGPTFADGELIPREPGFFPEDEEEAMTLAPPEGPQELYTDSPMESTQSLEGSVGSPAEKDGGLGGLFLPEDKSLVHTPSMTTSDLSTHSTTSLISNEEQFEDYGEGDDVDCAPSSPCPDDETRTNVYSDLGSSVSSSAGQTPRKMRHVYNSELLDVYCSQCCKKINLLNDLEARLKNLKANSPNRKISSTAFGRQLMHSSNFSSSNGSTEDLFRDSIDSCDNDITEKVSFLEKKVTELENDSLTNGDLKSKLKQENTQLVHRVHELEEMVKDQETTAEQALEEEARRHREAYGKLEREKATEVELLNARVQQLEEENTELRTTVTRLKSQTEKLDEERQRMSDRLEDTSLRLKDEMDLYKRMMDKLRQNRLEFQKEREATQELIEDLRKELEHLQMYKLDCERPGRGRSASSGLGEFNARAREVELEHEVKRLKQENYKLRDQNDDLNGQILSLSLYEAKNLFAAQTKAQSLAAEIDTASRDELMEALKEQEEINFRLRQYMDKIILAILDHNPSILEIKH
UniProt Q9H5N1: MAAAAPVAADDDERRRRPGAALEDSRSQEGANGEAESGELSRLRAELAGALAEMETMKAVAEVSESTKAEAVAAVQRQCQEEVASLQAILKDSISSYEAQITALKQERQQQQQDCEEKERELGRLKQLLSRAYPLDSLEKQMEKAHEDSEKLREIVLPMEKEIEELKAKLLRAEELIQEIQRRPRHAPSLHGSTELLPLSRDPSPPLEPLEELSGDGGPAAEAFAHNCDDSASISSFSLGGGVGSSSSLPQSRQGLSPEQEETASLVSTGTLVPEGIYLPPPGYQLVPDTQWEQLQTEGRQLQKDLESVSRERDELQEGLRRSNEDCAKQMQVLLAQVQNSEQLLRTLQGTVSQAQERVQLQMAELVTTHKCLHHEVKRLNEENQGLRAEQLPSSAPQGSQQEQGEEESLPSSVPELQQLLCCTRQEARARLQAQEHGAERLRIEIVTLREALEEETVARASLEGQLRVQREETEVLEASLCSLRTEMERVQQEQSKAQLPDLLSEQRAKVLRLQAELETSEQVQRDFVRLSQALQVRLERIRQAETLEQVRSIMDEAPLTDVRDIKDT

What was measured:
Assay in all cases: log2 fold change, soluble protein after heating vs DMSO (PISA); higher = thermal stabilisation; K562 cells, 10 uM, 30 min; active = over 0.2 and 3.5 SD of the protein, either way, in both replicates (recomputed)
[1] = compound: Cc1ccc(NC(=O)c2ccc(CN3CC[C@H](N(C)C)C3)c(C(F)(F)F)c2)cc1Nc1nccc(-c2cncnc2)n1 [bafetinib]
Method in brief: (§1)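 K562 cells (2×10^6 cells/mL) were treated with 10 μM compound for 30 min, and aliquots were heated for 3 min over 48°C-58°C. Pooled aliquots were extracted in PBS with 0.5% NP-40 at 4°C, and the supernatant after 21,000xg for 90 min was measured by TMTpro 16plex LC-MS/MS with channel sums equalised. Reported thermal stability, relative to control samples and from duplicates, is a log2 fold change.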

[2] = compound: Cc1cccc(CC(=O)N2CCc3c2ccc(-c2cn(C)c4ncnc(N)c24)c3F)n1
Method in brief: as §1

[3] = compound: Cc1nc(Nc2ncc(C(=O)Nc3c(C)cccc3Cl)s2)cc(N2CCN(CCO)CC2)n1 [dasatinib]
Method in brief: as §1

[4] = compound: Cn1cc(-c2ccc3c(c2)CCN3C(=O)Cc2cccc(C(F)(F)F)c2)c2c(N)ncnc21
Method in brief: as §1

[5] = compound: FC(F)(F)c1ccc(/C=C/c2nc(COc3ccc(CCCCn4ccnn4)cc3)co2)cc1 [mubritinib]
Method in brief: as §1

[6] = compound: NC(=O)c1cnc(N[C@@H]2CCCC[C@@H]2N)nc1Nc1cccc(-n2nccn2)c1
Method in brief: as §1

[7] = compound: NC1(c2ccc(-c3nc4ccn5c(=O)[nH]nc5c4cc3-c3ccccc3)cc2)CCC1
Method in brief: as §1

[8] = compound: O=C(CCCCCCC(=O)Nc1ccccc1)NO [vorinostat]
Method in brief: as §1

[9] = compound: O=C(CCCCCCNC(=O)c1cnc(N(c2ccccc2)c2ccccc2Cl)nc1)NO [citarinostat]
Method in brief: as §1

[10] = compound: O=C(O)c1ccc2c(c1)nc(Nc1cccc(Cl)c1)c1ccncc12 [silmitasertib]
Method in brief: as §1

[11] = compound: c1cc(OCCN2CCCCC2)cc(-c2n[nH]c3ccc(-c4nnc[nH]4)cc23)c1
Method in brief: as §1

[12] = compound: Cn1cc(-c2ccc3nnc(C(F)(F)c4ccc5ncccc5c4)n3n2)cn1
Method in brief: as §1

[13] = compound: NC(=O)Nc1cc(-c2cccc(F)c2)sc1C(=O)N[C@H]1CCCNC1
Method in brief: as §1

[14] = compound: NCC(=O)Nc1ccc(-n2nc(C(F)(F)F)cc2-c2ccc3c(ccc4ccccc43)c2)cc1
Method in brief: as §1

[15] = compound: Nc1ccccc1NC(=O)c1ccc(CNC(=O)OCc2cccnc2)cc1 [entinostat]
Method in brief: as §1

[16] = compound: Cc1cn(-c2cc(NC(=O)c3ccc(C)c(Nc4nccc(-c5cccnc5)n4)c3)cc(C(F)(F)F)c2)cn1 [nilotinib]
Method in brief: as §1

[17] = compound: Cc1nc(Nc2n[nH]c3c2CN(C(=O)N[C@H](CN(C)C)c2ccccc2)C3(C)C)c2sccc2n1
Method in brief: as §1

[18] = compound: Cc1ncc(-c2ccnc(Nc3ccc(S(C)(=O)=O)cc3)n2)n1C(C)C
Method in brief: as §1

[19] = compound: Cn1cncc1[C@@](N)(c1ccc(Cl)cc1)c1ccc2c(c1)c(-c1cccc(Cl)c1)cc(=O)n2C [tipifarnib]
Method in brief: as §1

[20] = compound: O=C1NC(=O)C(c2cnc3ccccn23)=C1c1cn2c3c(cc(F)cc13)CN(C(=O)N1CCCCC1)CC2
Method in brief: as §1

Measured: log2 fold change

RBBP4 isoform 2 (UniProt Q09028)
inactive: [1] -0.023 | [2] -0.142 | [3] 0.046 | [4] -0.105 | [5] -0.05 | [6] 0.015 | [7] 0.067 | [8] -0.135 | [9] 0.101 | [10] 0.028 | [11] 0.033

RASSF1 (UniProt Q9NS23)
inactive: [12] -0.104 | [13] 0.027 | [14] -0.437 | [15] 0.132

R3HDM4 (UniProt Q96D70)
inactive: [1] -0.013 | [16] -0.084 | [17] -0.007 | [3] -0.243 | [18] -0.007 | [19] 0.059 | [5] 0.229 | [13] 0.048 | [6] -0.013 | [7] -0.111 | [14] 0.264 | [15] 0.143 | [9] 0.053 | [10] -0.203 | [20] 0.1 | [11] 0.023

RAPGEF1 isoform 3 (UniProt Q13905)
inactive: [1] -0.195 | [5] 0.15 | [13] -0.58 | [7] -0.067 | [15] -0.029 | [10] 0.115

RASA3 (UniProt Q14644)
inactive: [2] -0.137 | [3] -0.073 | [4] -0.519 | [8] 0.283

RBFA (UniProt Q8N0V3)
inactive: [19] -0.212 | [9] 0.171 | [11] 0.115

RALGAPA1 isoform 6 (UniProt Q6GYQ0)
inactive: [1] -0.019 | [16] -0.115 | [17] 0.068 | [3] -0.124 | [18] 0.441 | [4] -0.026 | [12] 0.032 | [19] -0.097 | [5] 0.086 | [13] -0.1 | [6] -0.102 | [7] -0.117 | [14] -0.213 | [15] 0.089 | [9] -0.05 | [10] 0.042 | [20] -0.076 | [11] -0.086

RAI1 (UniProt Q7Z5J4)
inactive: [1] -0.292 | [16] 0.048 | [17] -0.028 | [18] -0.345 | [12] 0.219 | [5] -0.071 | [13] -0.244 | [7] -0.208 | [15] -0.06 | [10] -0.154 | [20] -1.04

Random excerpt: 2 entries already listed
RBBP4 isoform 2 (UniProt Q09028)
inactive: [1] -0.023 | [2] -0.142 | [3] 0.046 | [4] -0.105 | [5] -0.05 | [6] 0.015 | [7] 0.067 | [8] -0.135 | [9] 0.101 | [10] 0.028 | [11] 0.033

RASSF1 (UniProt Q9NS23)
inactive: [12] -0.104 | [13] 0.027 | [14] -0.437 | [15] 0.132

Additional records follow.

RBM26 isoform 3 (UniProt Q5T8P6)
inactive: [13] -0.079 | [6] -0.046 | [15] 0.103

RAD23A isoform 3 (UniProt P54725)
inactive: [2] -0.312 | [16] -0.143 | [17] 0.456 | [18] 0.052 | [8] -0.03

RAB3B (UniProt P20337)
inactive: [2] -0.224 | [12] -0.157 | [19] 0.205 | [13] 0.031 | [15] -0.098 | [8] 0.125

RAB19 isoform 2 (UniProt A4D1S5)
inactive: [1] -0.119 | [13] 0.026 | [15] -0.133 | [20] 0.295

RBM23 (UniProt Q86U06)
inactive: [1] -0.028 | [3] 0.005 | [4] -0.029 | [12] -0.09 | [19] 0.203 | [13] 0.133 | [14] -0.069 | [15] 0.067 | [20] 0.167

RAP1B (UniProt F5GWU8)
inactive: [3] 0.019 | [4] 0.007 | [12] -0.046 | [19] 0.267 | [6] 0.16 | [14] -0.079

RABGAP1L isoform 5 (UniProt Q5R372)
inactive: [1] -0.031 | [16] 0.112 | [17] -0.003 | [3] -0.054 | [18] -0.047 | [4] -0.002 | [19] 0.073 | [5] 0.036 | [13] -0.246 | [6] -0.094 | [7] -0.021 | [15] -0.051 | [10] 0.106
active: [20] -0.315

RBBP8 isoform 2 (UniProt Q99708)
inactive: [19] 0.176 | [6] 0.149

RBBP9 (UniProt O75884)
inactive: [5] 0.157 | [13] 0.038 | [7] -0.454 | [14] 0 | [15] -0.012 | [10] -0.001 | [20] -0.193

RALGAPB (UniProt Q86X10)
inactive: [1] -0.018 | [16] -0.05 | [17] -0.092 | [3] -0.162 | [18] 0.024 | [4] -0.13 | [12] -0.137 | [19] -0.087 | [5] 0.052 | [13] 0.023 | [6] -0.077 | [7] -0.13 | [15] -0.235 | [9] 0.071 | [10] 0.078 | [20] -0.015 | [11] -0.266

RAB18 (UniProt H0Y6T8)
inactive: [1] -0.072 | [16] -0.124 | [17] 0.019 | [18] -0.102 | [4] 0.033 | [5] 0.018 | [7] -0.353 | [14] -0.072 | [9] -0.007 | [10] 0.053 | [11] -0.099

RAPGEF4 (UniProt Q8WZA2)
inactive: [1] -0.075 | [3] 0.088 | [4] 0.201 | [5] 0.038 | [13] -0.095 | [6] -0.13 | [7] -0.054 | [14] -0.04 | [15] -0.003 | [9] 0.161 | [10] 0.125 | [20] -0.279 | [11] 0.127

RALBP1 (UniProt Q15311)
inactive: [2] -0.052 | [4] -0.198 | [19] 0.104 | [13] -0.155 | [6] -0.03 | [14] -0.035 | [15] 0.04 | [8] -0.029 | [20] 0.266

RANBP6 (UniProt O60518)
inactive: [3] 0.211 | [12] 0.063 | [19] 0.19 | [13] 0.06 | [15] 0.027 | [9] -0.096 | [11] -0.246

RANGRF (UniProt Q9HD47)
inactive: [9] -0.052 | [11] 0.005

RASA1 (UniProt P20936)
inactive: [16] -0.006 | [17] -0.242 | [3] -0.046 | [18] 0.025 | [4] 0.02 | [12] -0.032 | [19] -0.026 | [5] 0.221 | [13] -0.111 | [6] 0.26 | [7] -0.044 | [14] -0.126 | [15] -0.026 | [9] -0.033 | [10] -0.008 | [20] 0.173 | [11] -0.114

RAB11FIP4 (UniProt Q86YS3)
inactive: [13] -0.13 | [15] 0.015

RBBP7 (UniProt Q16576)
inactive: [1] -0.147 | [16] -0.005 | [17] 0.015 | [3] 0.042 | [18] -0.012 | [12] 0.062 | [19] -0.077 | [5] 0.048 | [13] -0.098 | [6] -0.094 | [7] 0.019 | [15] 0.034 | [9] -0.067 | [10] -0.006 | [20] 0.011 | [11] 0.007

RABEP2 (UniProt Q9H5N1)
inactive: [4] 0.061 | [12] 0.049

RAD17 (UniProt O75943)
inactive: [3] -0.525

RBCK1 (UniProt Q9BYM8)
inactive: [3] 0.009 | [4] 0.03 | [19] -0.464 | [6] 0.058 | [14] 0.072 | [20] 0.025
